The target of test [1] is ElpQ_(Y240A) (Borrelia burgdorferi strain B31) (UniProt Q9S035). Put plainly: SPR; kinetic fit (K_(D, kin)), 1:1 Langmuir; ElpQ/ElpB proteins amine-coupled to a CMD200 chip; activated C1s or C1r injected 0-200 nM, multicycle; HBS-T Ca2+ (10 mM Hepes pH 7.3, 140 mM NaCl, 0.005% Tween-20, 5 mM CaCl2); 30 μl/min; association 120 s (C1r 480 s), dissociation 180 s; both purified. (In SPR one partner is held on a chip, and binding of the other changes the refractive index at the surface.)

Test [2] concerns the target T1, ElpQ_(Δ290-296) (Borrelia burgdorferi strain B31) (UniProt Q9S035).
T1 sequence: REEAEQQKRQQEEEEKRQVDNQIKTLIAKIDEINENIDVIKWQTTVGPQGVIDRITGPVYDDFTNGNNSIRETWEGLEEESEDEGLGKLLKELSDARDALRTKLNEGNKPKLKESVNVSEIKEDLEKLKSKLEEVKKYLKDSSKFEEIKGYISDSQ
The description is as above.

For test [3], the target named is T2, ElpQA4 (Borrelia burgdorferi strain B31) (UniProt Q9S035).
T2 sequence: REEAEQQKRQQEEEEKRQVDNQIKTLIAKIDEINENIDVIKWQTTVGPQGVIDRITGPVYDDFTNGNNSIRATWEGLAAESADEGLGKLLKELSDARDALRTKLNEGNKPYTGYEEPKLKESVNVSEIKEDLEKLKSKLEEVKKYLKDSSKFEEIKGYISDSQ
The test can be described thus: SPR; steady-state fit (K_(D, ss)), 1:1 model, of the same injection series as a2; ElpQ proteins amine-coupled to a CMD200 chip; activated C1s or C1r 0-200 nM; HBS-T Ca2+ (10 mM Hepes pH 7.3, 140 mM NaCl, 0.005% Tween-20, 5 mM CaCl2); both purified.

No constants are given. Whether binding was seen depends on the method and setting. Some entries that bind do so weakly or less than the wild type.

B1: full-length activated human C1s (enzyme, UniProt P09871 16-437; P09871 438-688)
chain 1: EPTMYGEILSPNYPQAYPSEVEKSWDIEVPEGYGIHLYFTHLDIELSENCAYDSVQIISGDTEEGRLCGQRSSNNPHSPIVEEFQVPYNKLQVIFKSDFSNEERFTGFAAYYVATDINECTDFVDVPCSHFCNNFIGGYFCSCPPEYFLHDDMKNCGVNCSGDVFTALIGEIASPNYPKPYPENSRCEYQIRLEKGFQVVVTLRREDFDVEAADSAGNCLDSLVFVAGDRQFGPYCGHGFPGPLNIETKSNALDIIFQTDLTGQKKGWKLRYHGDPMPCPKEDTPNSVWEPAKAKYVFRDVVQITCLDGFEVVEGRVGATSFYSTCQSNGKWSNSKLKCQPVDCGIPESIENGKVEDPESTLFGSVIRYTCEEPYYYMENGGGGEYHCAGNGSWVNEVLGPELPKCVPVCGVPREPFEEKQR
chain 2: IIGGSDADIKNFPWQVFFDNPWAGGALINEYWVLTAAHVVEGNREPTMYVGSTSVQTSRLAKSKMLTPEHVFIHPGWKLLEVPEGRTNFDNDIALVRLKDPVKMGPTVSPICLPGTSSDYNLMDGDLGLISGWGRTEKRDRAVRLKAARLPVAPLRKCKEVKVEKPTADAEAYVFTPNMICAGGEKGMDSCKGDSGGAFAVQDPNDKTKFYAAGLVSWGPQCGTYGLYTRVKNYVDWIMKTMQENSTPRED
For B1, the binding result in test [1] was “no binding (tested: 200 nM (highest concentration injected))”.

B2: activated full-length human C1r (enzyme, UniProt P00736 18-705)
chain: SIPIPQKLFGEVTSPLFPKPYPNNFETTTVITVPTGYRVKLVFQQFDLEPSEGCFYDYVKISADKKSLGRFCGQLGSPLGNPPGKKEFMSQGNKMLLTFHTDFSNEENGTIMFYKGFLAYYQAVDLDECASRSKSGEEDPQPQCQHLCHNYVGGYFCSCRPGYELQEDTHSCQAECSSELYTEASGYISSLEYPRSYPPDLRCNYSIRVERGLTLHLKFLEPFDIDDHQQVHCPYDQLQIYANGKNIGEFCGKQRPPDLDTSSNAVDLLFFTDESGDSRGWKLRYTTEIIKCPQPKTLDEFTIIQNLQPQYQFRDYFIATCKQGYQLIEGNQVLHSFTAVCQDDGTWHRAMPRCKIKDCGQPRNLPNGDFRYTTTMGVNTYKARIQYYCHEPYYKMQTRAGSRESEQGVYTCTAQGIWKNEQKGEKIPRCLPVCGKPVNPVEQRQRIIGGQKAKMGNFPWQVFTNIHGRGGGALLGDRWILTAAHTLYPKEHEAQSNASLDVFLGHTNVEELMKLGNHPIRRVSVHPDYRQDESYNFEGDIALLELENSVTLGPNLLPICLPDNDTFYDLGLMGYVSGFGVMEEKIAHDLRFVRLPVANPQACENWLRGKNRMDVFSQNMFCAGHPSLKQDACQGDSGGVFAVRDPNTDRWVATGIVSWGIGCSRGYGFYTKVLNYVDWIKKEMEEED
On to B2, for which the binding entry was “no binding (tested: 200 nM (highest concentration injected))” in test [1], “no binding (tested: 200 nM (highest concentration injected))” in test [2] and “binds weakly” in test [3].

Values taken from publication PMC11066524, “The molecular determinants of classical pathway complement inhibition by OspEF-related proteins of Borrelia burgdorferi” (The Journal of Biological Chemistry, 2024).
